Experimental data published in PMC9433374.
No constants are given. Whether binding was seen depends on the method and setting. In cells and extracts the contact can be indirect. A result given as binding can be weak or reduced; the word gives no strength.

Molecular target: β-arrestin (human (endogenous in OSCC patient-derived CAFs))
Assay: co-IP; endogenous proteins; IP antibody (anti-ERK5, anti-Gαq or anti-β-arrestin) or IgG isotype on protein A/G magnetic beads, 1 h at room temperature with lysates of CAFs with sa-NC or sa-OXTR; beads washed five times with lysis buffer; immunoblot

Row | binding | Binder
1 | binds weakly | protein kinase C (PKC)ζ (enzyme, UniProt Q05513 1-592) MPSRTGPKMEGSGGRVRLKAHYGGDIFITSVDAATTFEELCEEVRDMCRLHQQHPLTLKWVDSEGDPCTVSSQMELEEAFRLARQCRDEGLIIHVFPSTPEQPGLPCPGEDKSIYRRGARRWRKLYRANGHLFQAKRFNRRAYCGQCSERIWGLARQGYRCINCKLLVHKRCHGLVPLTCRKHMDSVMPSQEPPVDDKNEDADLPSEETDGIAYISSSRKHDSIKDDSEDLKPVIDGMDGIKISQGLGLQDFDLIRVIGRGSYAKVLLVRLKKNDQIYAMKVVKKELVHDDEDIDWVQTEKHVFEQASSNPFLVGLHSCFQTTSRLFLVIEYVNGGDLMFHMQRQRKLPEEHARFYAAEICIALNFLHERGIIYRDLKLDNVLLDADGHIKLTDYGMCKEGLGPGDTTSTFCGTPNYIAPEILRGEEYGFSVDWWALGVLMFEMMAGRSPFDIITDNPDMNTEDYLFQVILEKPIRIPRFLSVKASHVLKGFLNKDPKERLGCRPQTGFSDIKSHAFFRSIDWDLLEKKQALPPFQPQITDDYGLDNFDTQFTSEPVQLTPDDEDAIKRIDQSEFEGFEYINPLLLSTEESV
2 | binds weakly | MEK5 (enzyme, UniProt Q13163 1-448) MLWLALGPFPAMENQVLVIRIKIPNSGAVDWTVHSGPQLLFRDVLDVIGQVLPEATTTAFEYEDEDGDRITVRSDEEMKAMLSYYYSTVMEQQVNGQLIEPLQIFPRACKPPGERNIHGLKVNTRAGPSQHSSPAVSDSLPSNSLKKSSAELKKILANGQMNEQDIRYRDTLGHGNGGTVYKAYHVPSGKILAVKVILLDITLELQKQIMSELEILYKCDSSYIIGFYGAFFVENRISICTEFMDGGSLDVYRKMPEHVLGRIAVAVVKGLTYLWSLKILHRDVKPSNMLVNTRGQVKLCDFGVSTQLVNSIAKTYVGTNAYMAPERISGEQYGIHSDVWSLGISFMELALGRFPYPQIQKNQGSLMPLQLLQCIVDEDSPVLPVGEFSEPFVHFITQCMRKQPKERPAPEELMGHPFIVQFNDGNAAVVSMWVCRALEERRSQQGPP
